# In patent US9096581B2, “Fluoroethyl thiamine or salts thereof and application thereof in preparation of anticoccidial drugs” (GUANGZHOU ORIGMOL FEED-ADDITIVE CO., LTD, priority 2012, dated 2015):
# Some of these results come from one statement about several compounds together.
# System: Eimeria tenella GD strains
# Assay: Comparison with other anticoccidial drugs in chickens infected with Eimeria tenella GD (Embodiment 3)
# Format: in vivo
# Settings: 5 ppm in feed (Table 4)
# From the text: 1-day-old Lingnan yellow chickens, purchased from Poultry Research Unit, Bureau of Animal Husbandry, Guangdong Academy of Agricultural Sciences, bred under coccidium-free environment, and subjected to experiment after no coccidium oocyst is found in feces through microscopic examination when the chickens are 14 days old. Perfect compound feed for chickens: prepared by Huizhou Yuantai Feed Co. Ltd., and containing no antibacterial or anticoccidial additive.
# Eimeria tenella GD strains, having no resistance to various anticoccidial drugs. Breeding and amplifying in one chicken before the experiment, collecting fresh oocysts, sporulating, and preserving at 4° C. for later use.
# Weighing the 14-day-old experiment chickens one by one, rejecting emaciated chickens or overweighted chickens, selecting healthy chickens of which the individual body weight difference is within 20 g, and dividing into 6 groups with 30 chickens in each group. Groups 1 and 2 are respectively a non-drug-applied and non-coccidium-killed control group and a coccidium-infected and non-drug-applied control group, and Groups 3-6 are respectively added with different anticoccidial drugs according to Table 4. Feeding with feed containing different drugs on the day of experiment grouping, enabling the chickens to freely take in the feed, and feeding the chickens until the experiment ends. […]
smiles,measurement,value
CO[C@@H]1[C@@H](OC)[C@H](C)[C@@](O)(CC(=O)O)O[C@H]1[C@H](C)[C@H]1O[C@@]2(CC[C@@](C)([C@H]3CC[C@@](C)([C@@H]4O[C@@H]([C@H]5O[C@](C)(O)[C@H](C)C[C@@H]5C)C[C@@H]4O[C@@H]4C[C@H](OC)[C@@H](OC)[C@H](C)O4)O3)O2)C[C@H](O)[C@H]1C [maduramicin],drug efficiency level judged from bloody feces scoring and anticoccidial index,high-efficiency anticoccidial drugs (high-efficiency anticoccidial drugs if ACI≧180)
